Data source: PubChem BioAssay AID1259308 (NCATS, 2017)
Screen: 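Candidate targets for better recombinant protein yield in mammalian cells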 (primary screen). System: human HEK293 embryonic kidney cells stably expressing firefly luciferase (HEK-CMV-Luc2-Hygro). Reagent: single siRNA against human genes, 0.8 pmol siRNA per well. Duration: 72 h. Read-out: 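Reporter luminescence and viable-cell signal on separate replicate plates, given as percent of non-targeting control and median/MAD z-scores, plus per-cell luciferase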. Direction: total luciferase, z-score and total luciferase, % of control: higher = more reporter protein produced. Hit rule: 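Active when the median/MAD z-score for overall luciferase is greater than 3; a gene was taken forward for validation with new siRNAs if at least two of its three siRNAs passed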. Meaning of the calls: active = raised luciferase; inactive = no rise.
Shown is an unselected part of about 59,000 reagents tested. About 1,510 of all reagents (2.6%) were called active. 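Calls use total luciferase alone and ignore viability, so some active siRNAs may act by altering cell number.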 A number with no mark means an inactive call. Reagents against one gene are numbered here. Further read-outs or replicates are left out here.

Against CTDSP2 #1 the deposit lists total luciferase, z-score 2.11; total luciferase, % of control 124.
After knock-down of CTDSP2 #2, the record shows total luciferase, z-score 2.15; total luciferase, % of control 125.
For CTDSP2 #3 the deposit lists total luciferase, z-score -0.148; total luciferase, % of control 79.
Against MUSTN1 #1, the entry reads total luciferase, z-score 1.16; total luciferase, % of control 105.
Knock-down of MUSTN1 #2 resulted in: total luciferase, z-score -2.07; total luciferase, % of control 40.7.
For MUSTN1 #3, the values are total luciferase, z-score -0.146; total luciferase, % of control 79.
Against RDH11 #1 the deposit lists total luciferase, z-score 0.0804; total luciferase, % of control 83.5.
Depletion of RDH11 #2 came out at: total luciferase, z-score 0.141; total luciferase, % of control 84.7.
Depletion of RDH11 #3 gave: total luciferase, z-score -1.77; total luciferase, % of control 46.8.
After knock-down of DMTN #1 the results were total luciferase, z-score -0.414; total luciferase, % of control 73.6.
Against DMTN #2, the values are total luciferase, z-score 0.0954; total luciferase, % of control 83.8.
Silencing of DMTN #3 came out at: total luciferase, z-score 2.8; total luciferase, % of control 138.
For MED8 #1, the values are total luciferase, z-score -1.64; total luciferase, % of control 49.2.
Silencing of MED8 #2 came out at: total luciferase, z-score -2.06; total luciferase, % of control 40.9.
Depletion of MED8 #3 came out at: total luciferase, z-score -0.724; total luciferase, % of control 67.5.
After knock-down of CDKL3 #1, the record shows total luciferase, z-score -0.677; total luciferase, % of control 68.4.
Against CDKL3 #2, the entry reads total luciferase, z-score 0.203; total luciferase, % of control 85.9.
Against CDKL3 #3, the entry reads total luciferase, z-score 0.622; total luciferase, % of control 94.2.
CAMK2N1 #1 gave total luciferase, z-score -0.683; total luciferase, % of control 68.3.
Silencing of CAMK2N1 #2 gave: total luciferase, z-score -0.257; total luciferase, % of control 76.8.
CAMK2N1 #3 gave total luciferase, z-score 1.07; total luciferase, % of control 103.
